Results on one compound are retold here after patent EP4843990A1, “AMINO HETEROARYL MACROCYCLIC COMPOUNDS AS WELL AS PREPARATION METHOD THEREFOR AND USE THEREOF” (dated 2026).

Protein sequences, listed by entry. Tags and fused reporters are not part of them.
UniProt P08183, whole entry: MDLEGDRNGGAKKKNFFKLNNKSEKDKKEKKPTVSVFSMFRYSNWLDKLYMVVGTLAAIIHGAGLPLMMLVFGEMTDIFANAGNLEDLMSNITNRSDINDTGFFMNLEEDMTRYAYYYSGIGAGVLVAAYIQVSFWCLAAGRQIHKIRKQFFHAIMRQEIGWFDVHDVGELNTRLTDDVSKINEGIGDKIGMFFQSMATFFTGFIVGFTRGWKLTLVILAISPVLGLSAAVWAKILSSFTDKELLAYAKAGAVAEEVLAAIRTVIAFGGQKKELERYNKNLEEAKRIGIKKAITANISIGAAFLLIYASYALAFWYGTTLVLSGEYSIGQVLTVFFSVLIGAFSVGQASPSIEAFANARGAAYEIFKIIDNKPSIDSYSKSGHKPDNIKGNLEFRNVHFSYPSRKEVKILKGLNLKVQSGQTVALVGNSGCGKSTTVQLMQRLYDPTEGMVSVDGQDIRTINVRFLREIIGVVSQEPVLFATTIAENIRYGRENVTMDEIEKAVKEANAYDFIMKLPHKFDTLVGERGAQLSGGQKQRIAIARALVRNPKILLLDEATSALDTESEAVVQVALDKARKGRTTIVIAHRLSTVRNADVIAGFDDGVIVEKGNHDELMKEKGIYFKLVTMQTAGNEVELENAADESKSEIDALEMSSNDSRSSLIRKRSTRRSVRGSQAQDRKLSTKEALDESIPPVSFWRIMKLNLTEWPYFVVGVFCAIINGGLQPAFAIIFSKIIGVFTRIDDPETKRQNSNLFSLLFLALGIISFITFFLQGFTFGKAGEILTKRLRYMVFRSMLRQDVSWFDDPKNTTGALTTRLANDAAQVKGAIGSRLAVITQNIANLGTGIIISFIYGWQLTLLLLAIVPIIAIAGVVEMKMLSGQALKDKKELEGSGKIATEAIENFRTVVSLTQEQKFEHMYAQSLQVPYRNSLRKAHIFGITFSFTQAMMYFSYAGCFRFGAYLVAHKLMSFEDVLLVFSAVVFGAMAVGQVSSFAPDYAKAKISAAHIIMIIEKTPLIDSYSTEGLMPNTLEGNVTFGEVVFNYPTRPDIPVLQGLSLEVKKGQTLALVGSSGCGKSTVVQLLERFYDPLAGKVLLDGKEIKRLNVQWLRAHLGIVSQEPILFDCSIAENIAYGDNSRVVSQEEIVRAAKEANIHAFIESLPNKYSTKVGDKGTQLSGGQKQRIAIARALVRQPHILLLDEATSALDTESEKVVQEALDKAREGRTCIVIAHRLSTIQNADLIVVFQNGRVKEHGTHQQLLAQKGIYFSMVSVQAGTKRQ

One data set has as its target P-gp (Homo sapiens, UniProt P08183). The data set can be described thus: P-gp substrate evaluation assay (MDCKII-MDR1 Transwell permeability). The settings on record: MDCKII-MDR1 cells; Papp basolateral to apical / apical to basolateral; 2 hours; pH 7.4.
The next data set has as its system Ba/F3 EGFR wt+EGF. Nature of the data set: CellTiter-Glo cell proliferation inhibition assay. The settings on record: read-out: Antiproliferative activity (IC50 (nM)) Ba/F3 EGFR wt+EGF; Ba/F3 EGFR wt cells with EGF stimulation; 72 hours; CTG. In general terms: In ATP-based viability assays light output follows the ATP content of the culture.
For another data set, the system named is A431. Nature of the data set: CellTiter-Glo cell proliferation inhibition assay. The settings on record: read-out: Antiproliferative activity (IC50 (nM)) A431; A431 cells; 72 hours; CTG.
The test system of data set [1] is Ba/F3 (EGFR-L858R/T790M/C797S). The data set can be described thus: CellTiter-Glo cell proliferation inhibition assay. The settings on record: read-out: Antiproliferative activity (IC50 (nM)) Ba/F3 EGFR LR/TM/CS; Ba/F3 (EGFR-L858R/T790M/C797S) cells; 72 hours; CTG.
The next data set relates to NCI-H1975. Nature of the data set: CellTiter-Glo cell proliferation inhibition assay. The following applies: read-out: Antiproliferative activity (IC50 (nM)) NCI-H1975; NCI-H1975 cells; 72 hours; CTG.
The next data set relates to PC9. The data set can be described thus: CellTiter-Glo cell proliferation inhibition assay. The settings on record: read-out: Antiproliferative activity (IC50 (nM)) PC9; PC9 cells; 72 hours; CTG.
The test system of another data set is Ba/F3 (EGFR-L858R/C797S). Nature of the data set: CellTiter-Glo cell proliferation inhibition assay. The following applies: read-out: Antiproliferative activity (IC50 (nM)) Ba/F3 EGFR LR/CS; Ba/F3 (EGFR-L858R/C797S) cells; 72 hours; CTG.
The nature of data set [2]: Cassette pharmacokinetic study in mice. The settings on record: ICR mice; PO; cassette dosing; 15 mg/kg.

The structures given here were assigned with low confidence; some may be wrong.

Take `CC1CCOc2c(cnn2C)-c2nccc(n2)Nc2cc3c1ccc(N1C[C@H](N(C)S(C)(=O)=O)[C@H]1C)c3cn2` (stereo partly shown): on P-gp, the ER (Efflux Ratio) was found to be 0.4. The IC50 in the data set on Ba/F3 EGFR wt+EGF amounted to 20 nM; with A431, 196 nM; in data set [1], 1.7 nM; in the data set with NCI-H1975, 1.5 nM; with PC9, 0.7 nM; in the data set with Ba/F3 (EGFR-L858R/C797S), 0.5 nM. Further, the “Area Under the Curve AUC0-24h” value in data set [2] is 10199 ng·h/mL. In addition, in data set [2], the “Half-life T1/2” value was determined as 4.0 h. The “Maximum Concentration Cmax” value in data set [2] is 1413 ng/mL.
